Laboratory results reported in US20130071921A1.

Target: Cynomolgous monkey Dkk-1 (cynomolgous monkey)
Assay: SPR BIAcore 3000, CM5 chip

B1: huMabJC18, fully humanized anti-Dkk-1 monoclonal antibody (antibody, human IgG2, kappa, V domains shown)
VH: EVQLVESGGGLVQPGGSLRLSCAASGFTFSSYAISWVRQAPGKGLEWVASVSGTGLGFQTYYPDSVKGRFTISRDNAKNSLYLQMNSLRAEDTAVYYCATSLENYAFDYWGQGTTVTVSS
VL: EIVLTQSPATLSLSPGERATLSCRASESVDDFGISFINWYQQKPGQAPRLLIYAGSKQGSGIPARFSGSGSGTDFTLTISSLEPEDFAVYYCQQLKEVPPTFGGGTKVEIKR
binding: binds

Results are given in words; binding and its absence hold for the method and conditions named. Binding can be weak; no strength is given.
